Test results reported in publication PMC5579925.
No constants are given. Whether binding was seen depends on the method and setting. In cells and extracts the contact can be indirect. Some entries that bind do so weakly or less than the wild type.

Protein sequences, listed by entry. Tags and fused reporters are not part of them.
UniProt Q00987: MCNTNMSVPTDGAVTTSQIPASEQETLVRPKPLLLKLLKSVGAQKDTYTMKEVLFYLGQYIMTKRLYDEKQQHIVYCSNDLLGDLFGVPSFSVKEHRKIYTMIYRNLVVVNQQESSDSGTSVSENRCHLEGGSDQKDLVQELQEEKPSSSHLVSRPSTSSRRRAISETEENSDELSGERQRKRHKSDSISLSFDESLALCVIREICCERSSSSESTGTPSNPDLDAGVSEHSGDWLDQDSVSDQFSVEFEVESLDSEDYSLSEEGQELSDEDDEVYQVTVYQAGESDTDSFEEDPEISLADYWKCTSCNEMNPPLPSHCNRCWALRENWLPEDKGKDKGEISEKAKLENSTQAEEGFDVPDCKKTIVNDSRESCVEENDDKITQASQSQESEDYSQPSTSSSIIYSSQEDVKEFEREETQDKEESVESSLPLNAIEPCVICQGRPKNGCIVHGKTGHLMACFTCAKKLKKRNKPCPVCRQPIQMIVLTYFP

Biological target: T1, N-acetyltransferase 10 (NAT10) (human (endogenous in Huh7)) (UniProt Q9H0A0)
T1 sequence: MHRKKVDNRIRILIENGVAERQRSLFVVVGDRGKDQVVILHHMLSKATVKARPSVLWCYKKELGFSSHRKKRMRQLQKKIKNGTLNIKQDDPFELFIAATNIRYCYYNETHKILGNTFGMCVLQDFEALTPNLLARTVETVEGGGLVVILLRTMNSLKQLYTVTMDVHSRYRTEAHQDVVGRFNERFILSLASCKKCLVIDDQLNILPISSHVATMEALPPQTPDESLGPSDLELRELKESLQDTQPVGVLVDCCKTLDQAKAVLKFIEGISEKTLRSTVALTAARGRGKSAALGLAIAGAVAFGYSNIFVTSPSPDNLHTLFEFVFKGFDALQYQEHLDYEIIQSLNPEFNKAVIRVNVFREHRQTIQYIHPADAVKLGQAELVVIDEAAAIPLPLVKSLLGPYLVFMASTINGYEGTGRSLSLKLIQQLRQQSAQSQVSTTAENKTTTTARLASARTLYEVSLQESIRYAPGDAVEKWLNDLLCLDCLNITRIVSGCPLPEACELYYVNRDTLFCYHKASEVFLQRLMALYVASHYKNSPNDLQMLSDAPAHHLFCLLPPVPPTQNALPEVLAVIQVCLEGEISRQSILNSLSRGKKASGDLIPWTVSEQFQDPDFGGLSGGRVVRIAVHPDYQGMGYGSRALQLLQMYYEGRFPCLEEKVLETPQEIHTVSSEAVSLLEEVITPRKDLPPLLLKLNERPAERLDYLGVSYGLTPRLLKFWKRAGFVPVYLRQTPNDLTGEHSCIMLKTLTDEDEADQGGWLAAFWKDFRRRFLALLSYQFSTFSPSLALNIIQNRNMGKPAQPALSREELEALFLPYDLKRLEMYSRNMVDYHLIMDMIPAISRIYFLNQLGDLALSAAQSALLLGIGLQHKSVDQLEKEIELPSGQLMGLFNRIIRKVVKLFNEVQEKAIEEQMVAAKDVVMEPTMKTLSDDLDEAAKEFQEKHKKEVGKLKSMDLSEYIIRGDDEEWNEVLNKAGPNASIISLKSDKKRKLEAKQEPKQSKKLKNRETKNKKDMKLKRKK
Test: co-IP; Huh7 cell lysates (lysis buffer A: 25 mM Tris-HCl pH 7.5, 100 mM KCl, 1 mM DTT, 2 mM EDTA, 0.1% Nonidet P-40) immunoprecipitated with control IgG or anti-NAT10 antibodies on protein A and G beads, 2 h at 4 °C; precipitates immunoblotted

binding: binds
Substance: Mdm2 (Murine double minute2) (from UniProt Q00987 1-491)
